# ± gives the standard deviation. The list shows a part of the results. Many entries were measured with a wide error.
# System: EfPiwi piRISC loaded with L1MC piRNA (26 nt)
# Test: pre-steady-state target cleavage rate (min^-1); guide: L1MC piRNA 5'p-UAACUAAAUACUAUGCAAGCUGUAGG; MIWI and MILI are mouse PIWI proteins and EfPiwi is from a freshwater sponge; tags in brackets are library labels; higher = faster piRNA-guided slicing of the target
# Settings: auxiliary factor: 500 nM Ephydatia muelleri Gtsf1
# Procedure, shortened: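 The pre-steady-state cleavage rate was derived from a burst-and-steady-state fit of Cleave-'n-Seq data. For these assays, 1 nM active affinity-purified piRISC loaded with a single synthetic guide was mixed with […] a transcribed, DNA-blocked target RNA library in HEPES–potassium acetate buffer at 33 °C, with or without 500 nM GTSF1 partner protein, for 0–8 or 0–960 min. Sequencing counts of uncleaved targets were normalised to depth and to weakly complementary targets, and k3 was capped at 0.0001 min^-1 after three trials were pooled.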
row,Sequence,pre-steady-state target cleavage rate
1,UCCUGGAACAGCUUGCAUAGUAUUAGUUA,0.00229 ± 0.0021
2,UCCUGGAUGUCUUUGCAUAGUAUUUAGUUA,0.00871 ± 0.0039
3,UCCUGGAUCAGAUUGCAUAGUAUUUAGUUA,0.0613 ± 0.011
4,UCCUGGAUGUCGAACGUAUCUCUUUAGUUA,0.000135 ± 0.032
5,UCCUCCUACAGCUUGCAUAGUAUUUACUAA,0.00569 ± 0.003

# Same assay, conditions: auxiliary factor: none (no Gtsf1)
row,Sequence,pre-steady-state target cleavage rate
1,UCCUGGAUGAGCUUGCAUAGUAUUCAGUUA,0.000386 ± 0.026
2,UCCUGGUACAGCUUGCAUAGUACUUAGUUA,0.000484 ± 0.02
3,UCCUGGAUGAGCUUGCAUAUUAUUUAGUUA,0.0026 ± 0.0056
4,UCCUGCUAGACCUUGCAUAGUAUUUAGUUA,0.000879 ± 0.009
5,UCCUGGAUGUCGAACCAUAGUAGUUUAGUUA,< 0.0001
6,UCCUGGAUGUCGAACGAAGUAUUUAGUUA,< 0.0001
7,UCCUGGAUGUCGAACGUAUCUAUUUGUUA,0.000131 ± 0.037
8,UCCUGGAUGUCGAACGUAAGAAUUUAGUAA,< 0.0001
9,UCCUCCUACAGCUUGCAAAGAAUUUAGUUA,0.000641 ± 0.0083
10,UCCUGGAACUGCUUGCAUAGUAUUUAGUAA,0.001 ± 0.0081
11,UCCUGGAUGUCGAACGUUAGUAUUUAGUGA,0.000304 ± 0.015

# Looked up one by one from the entries so far, two records:
row,Sequence,pre-steady-state target cleavage rate
5,UCCUGGAUGUCGAACCAUAGUAGUUUAGUUA,< 0.0001
4,UCCUGCUAGACCUUGCAUAGUAUUUAGUUA,0.000879 ± 0.009
